# Measured values published in PubChem BioAssay AID1508600 (Functional Genomics Laboratory (NCATS/FGL), 2020).
# Screen size: about 53,000 sequences; about 3,700 (7%) were called active.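 How the source made its calls: active means gene knockdowns whose robust z-score for IL-1 alpha signal is at least 2 or at most -2, so actives lie on both sides; inactive means the rest.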 This is one part of the list.
# Test: Components of the Cytosolic LPS Sensing Pathway: Gene Identification via Genome-wide siRNA Screen;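 further: robust z of the log signal after scaling to non-targeting control siRNA wells of the plate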
# Conditions: RAW264.7 macrophages, IL-1a HTRF, actives lie on both sides, screened at 100 nM (by protocol), cells primed 5 h with Pam3CSK4 first
# Summary of the method: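 Knockdown: 100 nM siRNA, 48h, RAW264.7. Stimulation: Pam3CSK4 5 h, then LipidA via TransIT-TKO 24 h. Output: supernatant IL-1a HTRF, negative-control-normalized, log robust z-score; viability by CellTiter-Glo.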
row,Sequence,z-score
1,GGAAUCCUUACAUCGCCCATT against Olfr669,inactive: 0.0491
2,GGGUCUCCAAUCCCUCAGUTT against Kir3dl2,inactive: 0.489
3,GGCAGACAACUUCUACCAATT against Crim1,active: 2.52
4,GGUACACCUUGUUGGAAUUTT against Eif5a2,inactive: 0.707
5,GGUAUUUCUUUGUGGUGCUTT against Ptch2,inactive: 1.45
6,GGUGGGCUUUCAGUGCUACTT against Plppr3,inactive: 1.98
7,GGACAAAGAAGGCAAGCAUTT against Mecp2,inactive: 1.1
8,GGAUCCUCAGAUGAGUAUGTT against Ror1,inactive: -0.694
9,CCUUUAAAAGUACCAACCCTT against B9d1,inactive: 0.679
10,GCCACUAGUAUUAUGCUUCTT against Fhit,inactive: 0.569
11,GGCUACAUGAGCUGGAGAATT against Insr,active: 2.71
12,GGAGAGAAAAACUUCUGGUTT against Nfx1,inactive: 0.625
13,CCAGCUGGCAAGGUUAUGATT against Akap8,inactive: 1.22
14,GGAGAAAUCAAGCAAAGAUTT against Soat1,inactive: -0.0846
15,GAGUGUGCAUUUUGUUAGUTT against Olfr136,inactive: 0.763
16,GGAGGAAAAAAGGAUCCUGTT against Map3k2,inactive: 0.101
17,GCAUGGUAUUAGAUGAUGATT against Nexn,inactive: -1.69
18,GGAUUCACACCGUGAAGGUTT against Rfesd,inactive: 0.0665
19,GUCCUCUUCUGGUUCUCAGTT against Vmn1r52,inactive: 0.246
20,GUGACCUCAUCCAGAAAAUTT against Vmn1r190-ps,inactive: -0.613
21,GCAGGUGACGUGAGGUUAATT against Zfp276,inactive: -0.121
22,GUGCCACGACGGUUUUUUCTT against Avp,inactive: -1.85
23,GCAAGUAAGACGGAACCCUTT against Ddx28,inactive: 0.783
24,CCUGUUAUGACCGUUCAUGTT against Prpf4,inactive: 0.551
25,GCUGAAUUUAGAGAGCACATT against Fam167b,inactive: 0.763
26,GGAUCUUCGUGUCCAUUUATT against Ppfia2,inactive: -0.177
27,GGUUUUUGGGAAUUGGCUUTT against Sfxn5,inactive: -0.0222
28,AUUCAACCUGUCAAUUGUCTT against H2ac8,inactive: 0.266
29,GGACAUGAAAGAUGCAAUUTT against Olfr421-ps1,inactive: -1.29
30,GGGCAUGACAUUCGAGACATT against Asic1,inactive: -1.64

# Taken from above (2 entries):
row,Sequence,z-score
4,GGUACACCUUGUUGGAAUUTT against Eif5a2,inactive: 0.707
5,GGUAUUUCUUUGUGGUGCUTT against Ptch2,inactive: 1.45
